Experimental findings from paper doi:10.1101/2023.12.05.570171 are described below.

Amino acid sequences for entries named in this document (tags omitted).
UniProt O54992: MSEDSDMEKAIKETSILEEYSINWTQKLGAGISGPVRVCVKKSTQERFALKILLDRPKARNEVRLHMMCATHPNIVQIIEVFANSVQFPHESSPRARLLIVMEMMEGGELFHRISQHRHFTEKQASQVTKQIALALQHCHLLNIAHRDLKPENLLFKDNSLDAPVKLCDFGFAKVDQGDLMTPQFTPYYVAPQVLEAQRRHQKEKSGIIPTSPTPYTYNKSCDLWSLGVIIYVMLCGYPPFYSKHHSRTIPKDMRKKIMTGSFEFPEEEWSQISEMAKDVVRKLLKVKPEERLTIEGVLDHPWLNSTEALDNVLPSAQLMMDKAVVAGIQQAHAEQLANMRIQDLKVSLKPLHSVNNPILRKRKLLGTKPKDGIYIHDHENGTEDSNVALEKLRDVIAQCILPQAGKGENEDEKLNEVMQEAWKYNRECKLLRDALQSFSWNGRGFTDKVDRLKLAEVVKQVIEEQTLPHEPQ
UniProt Q61532: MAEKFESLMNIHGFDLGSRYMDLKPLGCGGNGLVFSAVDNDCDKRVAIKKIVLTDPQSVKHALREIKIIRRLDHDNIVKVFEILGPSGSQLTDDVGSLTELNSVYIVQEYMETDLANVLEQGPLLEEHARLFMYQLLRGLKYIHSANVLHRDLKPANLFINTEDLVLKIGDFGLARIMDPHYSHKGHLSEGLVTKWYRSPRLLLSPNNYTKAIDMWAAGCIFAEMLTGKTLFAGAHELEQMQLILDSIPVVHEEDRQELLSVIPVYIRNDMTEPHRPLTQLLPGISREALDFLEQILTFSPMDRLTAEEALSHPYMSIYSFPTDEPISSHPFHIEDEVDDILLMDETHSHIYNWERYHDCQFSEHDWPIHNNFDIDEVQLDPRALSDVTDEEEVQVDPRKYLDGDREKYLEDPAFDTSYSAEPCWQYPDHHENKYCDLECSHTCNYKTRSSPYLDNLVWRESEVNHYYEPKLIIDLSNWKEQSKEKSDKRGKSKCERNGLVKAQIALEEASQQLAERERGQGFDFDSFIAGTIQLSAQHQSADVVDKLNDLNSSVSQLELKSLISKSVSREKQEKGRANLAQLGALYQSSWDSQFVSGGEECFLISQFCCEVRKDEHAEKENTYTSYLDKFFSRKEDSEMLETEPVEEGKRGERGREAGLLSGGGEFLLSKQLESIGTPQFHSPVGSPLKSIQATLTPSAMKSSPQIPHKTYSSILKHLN
UniProt P47811: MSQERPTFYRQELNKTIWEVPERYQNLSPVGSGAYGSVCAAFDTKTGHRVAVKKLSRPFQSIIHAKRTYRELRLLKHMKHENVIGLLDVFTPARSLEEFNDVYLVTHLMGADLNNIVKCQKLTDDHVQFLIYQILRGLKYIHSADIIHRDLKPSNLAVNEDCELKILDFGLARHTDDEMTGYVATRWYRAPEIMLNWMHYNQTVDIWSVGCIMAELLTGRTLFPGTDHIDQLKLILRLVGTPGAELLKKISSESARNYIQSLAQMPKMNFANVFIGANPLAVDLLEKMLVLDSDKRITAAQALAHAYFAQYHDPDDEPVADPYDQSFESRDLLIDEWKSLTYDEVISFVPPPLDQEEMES
UniProt Q6P5G0: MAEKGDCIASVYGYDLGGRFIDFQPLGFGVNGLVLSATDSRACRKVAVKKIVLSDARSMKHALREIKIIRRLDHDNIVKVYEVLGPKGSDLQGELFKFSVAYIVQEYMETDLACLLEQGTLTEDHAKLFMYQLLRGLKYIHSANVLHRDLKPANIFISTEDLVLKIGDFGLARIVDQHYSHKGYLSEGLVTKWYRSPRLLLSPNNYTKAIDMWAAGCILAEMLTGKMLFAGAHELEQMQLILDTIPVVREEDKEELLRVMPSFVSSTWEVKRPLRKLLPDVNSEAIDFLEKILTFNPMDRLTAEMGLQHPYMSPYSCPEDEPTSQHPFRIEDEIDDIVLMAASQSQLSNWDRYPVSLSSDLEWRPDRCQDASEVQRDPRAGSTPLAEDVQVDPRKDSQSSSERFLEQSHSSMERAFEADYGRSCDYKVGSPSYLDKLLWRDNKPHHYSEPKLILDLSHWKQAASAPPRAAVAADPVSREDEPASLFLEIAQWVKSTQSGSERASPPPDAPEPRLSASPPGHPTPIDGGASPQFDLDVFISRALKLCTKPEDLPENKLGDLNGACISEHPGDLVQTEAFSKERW

No constants are given. Whether binding was seen depends on the method and setting. In cells and extracts the contact can be indirect. Some entries that bind do so weakly or less than the wild type.

For the test, the target named is MAP kinase-activated protein kinase (MK)-5 (mouse (endogenous in heart)) (UniProt O54992). The test can be described thus: co-IP.
Take “extracellular-regulated kinase (ERK)3/MAPK6 (from UniProt Q61532 1-720)”: the binding entry is “binds”.
With “p38α MAP kinase (from UniProt P47811 1-360)”, the binding result is “no binding”.
As for ERK4/MAPK4 (from UniProt Q6P5G0 1-583), the binding result is reported as “no binding”.
